# Some of the results follow. These are further read-outs of the screen, such as a control signal, another cell line or another target. No call is given for them. Compounds called inactive in the main read-out are mostly missing here. Words in brackets tell the shape of the fitted curve; partial curves, single points and poor fits give uncertain potencies.
# Test: qHTS Assay for Lipid Storage Modulators in Drosophila S3 Cells;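 as to cell number change: cells counted by Cell Tracker Red CMTPX staining in the red channel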
# Settings: BODIPY lipid droplet fluorescence, 18-24 h; for cell number change: measured here: cell count max response, cells fed with added oleic acid
# Outline: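 Drosophila S3 cells got compounds at several concentrations plus oleic acid (400 uM solution). Laser-scanning cytometry with 488 nm excitation read lipid droplets at 500-530 nm and cells at 575-640 nm. Percent activity was relative to 20 uM Triacsin C.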
# [1] = measured here: cell number channel AC50, cells fed with added oleic acid
# [2] = measured here: lipid fluorescence (Fed channel) AC50, cells fed with added oleic acid
Compound,cell number change [%],AC50 [1],AC50 [2]
Cn1c2ccccc2c2cc([N+](=O)[O-])ccc21,4.59,"0.206 µM [rising, full curve, poor fit]","2.59 µM [rising, partial curve, poor fit]"
COc1ccc(NC(=O)NC23CC4CC(CC(C4)C2)C3)cc1OC,–,–,"0.92 µM [rising, full curve]"
CCOC(=O)c1cnn(-c2cc(C)cc(C)c2)c1N,–,"0.116 µM [rising, full curve, poor fit]","0.103 µM [rising, full curve, poor fit]"
O=C(c1ccc(CS(=O)(=O)c2ccc(Br)cc2)o1)N1CCN(c2ncccn2)CC1,-49.9,"11.6 µM [falling, partial curve, poor fit]",–
CCOCCCn1c(=S)[nH]c2cc(C(=O)NCCN(CC)CC)ccc2c1=O,6.26,–,–
Cn1c(=O)c2c(nc(NCCCO)n2C/C=C/c2ccccc2)n(C)c1=O,–,–,"11.6 µM [falling, partial curve]"
O=C(COC(=O)CNC(=O)c1ccccc1F)Nc1cccnc1Cl,-20.8,–,–
O=C(COc1ccc([N+](=O)[O-])cc1)NNC(=S)NC(=O)c1ccc(Br)cc1,93.5,"18.4 µM [rising, partial curve]","16.4 µM [rising, single point]"
COc1ccc(C2C(C#N)=C(N)N(c3sc4c(c3C#N)CCCC4)C3=C2C(=O)CC(C)(C)C3)cc1 (centres undefined),8.41,"0.103 µM [rising, full curve, poor fit]",–
CCCCSc1nnc2n(CCc3ccccc3)c(=O)c3c4c(sc3n12)COC(C)(C)C4,-22.2,"0.651 µM [falling, full curve]","29.1 µM [falling, single point]"
CCCCOc1ccc(Cl)cc1CSc1nncn1N,–,"2.06 µM [rising, partial curve]","6.51 µM [rising, single point]"
COc1ccc(NC(=S)N2CCN(c3ncccn3)CC2)cc1,19.9,"3.66 µM [rising, single point]","29.1 µM [rising, single point]"
CN=C(Nc1ccc(C)c(C)c1)SC1CC(=O)N(c2ccc(OC)cc2)C1=O (centres undefined),-6.53,–,"0.0291 µM [falling, full curve, poor fit]"
Cc1ccc(C(C2C(=O)CC(C)(C)CC2=O)C2C(=O)CC(C)(C)CC2=O)s1,11.2,–,–
O=C(C1CCCCCC1)N1CC[C@@H](N2CCC(O)CC2)[C@H](O)C1,-17.1,–,–
CN(C)c1ccc(NC(=S)NC(=O)/C=C/c2ccc(Cl)cc2)cc1,–,–,"6.51 µM [rising, single point]"

# A second format for some results above.
Compound	cell number change [%]	AC50 [1]	AC50 [2]
CN=C(Nc1ccc(C)c(C)c1)SC1CC(=O)N(c2ccc(OC)cc2)C1=O (centres undefined)	-6.53	–	0.0291 µM [falling, full curve, poor fit]
Cc1ccc(C(C2C(=O)CC(C)(C)CC2=O)C2C(=O)CC(C)(C)CC2=O)s1	11.2	–	–
